Assay results reported in patent US20170291905A1, “ARGININE METHYLTRANSFERASE INHIBITORS AND USES THEREOF” (Epizyme, Inc., priority 2014, published 2017).
Structures were worked out from names or drawings and are uncertain.

By UniProt entry, the sequences of proteins in these tests, tags left out.
UniProt Q9NR22, whole entry: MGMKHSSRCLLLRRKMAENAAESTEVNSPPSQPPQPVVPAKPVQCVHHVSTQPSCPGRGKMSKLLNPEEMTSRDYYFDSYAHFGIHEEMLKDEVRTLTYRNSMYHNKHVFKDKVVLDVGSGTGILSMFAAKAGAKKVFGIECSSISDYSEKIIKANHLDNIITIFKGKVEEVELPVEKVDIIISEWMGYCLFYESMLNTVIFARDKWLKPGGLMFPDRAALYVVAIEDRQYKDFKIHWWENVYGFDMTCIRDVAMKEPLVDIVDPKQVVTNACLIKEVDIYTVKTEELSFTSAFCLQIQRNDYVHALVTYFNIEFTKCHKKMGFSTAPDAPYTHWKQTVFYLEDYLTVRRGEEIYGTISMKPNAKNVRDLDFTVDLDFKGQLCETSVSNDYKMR

Biological target: full-length human PRMT8 isoform 1 (Homo sapiens, UniProt Q9NR22)
Experiment: PRMT8 biochemical assay (3H-SAM Flashplate, histone H4 31-45 peptide)
Settings: read-out: PRMT8 IC50; 1.5 nM PRMT8, 30 min preincubation, 150 nM peptide
Text: S-adenosylmethionine (SAM), S-adenosylhomocysteine (SAH), bicine, Tween20, dimethylsulfoxide (DMSO), bovine skin gelatin (BSG), isopropyl-β-D-thiogalactopyranoside (IPTG), and Tris(2-carboxyethyl)phosphine hydrochloride solution (TCEP) were purchased from Sigma-Aldrich at the highest level of purity possible. ^3H-SAM was purchase from American Radiolabeled Chemicals with a specific activity of 80 Ci/mmol. 384-well streptavidin Flashplates were purchased from PerkinElmer.
Peptide representative of human histone H4 residues 31-45 was synthesized with an N-terminal linker-affinity tag motif and a C-terminal amide cap by 21st Century Biochemicals. The peptide was purified by high-performance liquid chromatography (HPLC) to greater than 95% purity and confirmed by liquid chromatography mass spectrometry (LC-MS). The sequence was Biot-Ahx-KPAIRRLARRGGVKR-amide (SEQ ID NO.:8).
Full-length human PRMT8 (NM_019854.4) isoform 1 transcript clone was amplified from an HEK 293 cDNA library and subcloned into pGEX-4T-1 (GE Life Sciences). The resulting construct encodes an N-terminal GST tag and a thrombin cleavage sequence
E. coli (BL21(DE3) Gold, Stratagene) made competent by the CaCl2 method were transformed with the PRMT8 construct and ampicillin selection. Protein over-expression was accomplished by growing the PRMT8 expressing E. coli clone and inducing expression with 0.3 mM IPTG at 16° C. […]

Question: With CNCCN(C)Cc1ncsc1[C@H]1CC[C@@]2(CC1)CC(C)(C)CO2 [compound 83] as the molecule, how does the IC50 read?
Answer: 0.0114 µM
